# The supplement of paper PMC10735217
# Counter-ions that a name gives are not always drawn. Some of the results follow. Single values are uncertain here, since repeats match poorly.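 Human kidney-derived cells stably carry a construct in which eight TEAD-binding elements drive luciferase, measured by luminescence in a drug-repurposing library screen. A hit is any compound whose signal exceeds the plate mean by more than five robust Z scores.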
# System: HEK293A TEAD-LUC reporter
# Assay: TEAD-luciferase reporter activity (YAP activation), robust Z score vs plate; higher = stronger YAP/TEAD activation
# Conditions: 24 h
SMILES,TEAD-luciferase reporter activity (compound concentration: 200 nM),TEAD-luciferase reporter activity (compound concentration: 2 uM),TEAD-luciferase reporter activity (compound concentration: 10 uM)
CCOc1ccccc1-n1c(CN2CCNCC2)nc2ccccc2c1=O,inactive: -0.478,inactive: -2.27,inactive: -2.32
CCC1(CC)C(=O)NC(=O)N(c2ccccc2)C1=O,inactive: -0.339,inactive: -1.15,inactive: -1.18
COc1ccc(C(CN(C)C)C2(O)CCCCC2)cc1 (stereo unspecified),inactive: 0.739,,inactive: -1.5
COc1ccc(C(CN(C)C)C2(O)CCCCC2)cc1 (stereo unspecified) [venlafaxine hydrochloride],,inactive: -1.15,
O=C(NCc1ccccc1)c1cnc(Nc2cccc(Cl)c2)nc1C(F)(F)F,inactive: 3.03,inactive: -0.195,inactive: -0.764
NCCc1ccc(O)cc1,inactive: 1.17,inactive: -1.42,inactive: -0.651
O=C(c1ccncc1)N1CC2CCC(C1)N2Cc1cccc(Cl)c1,inactive: 1.25,,inactive: 0.108
O=C(O)C(=O)c1cn(Cc2ccccc2)c2ccc(-c3ccc(OC(F)(F)F)cc3)cc12 [Tiplasinin],inactive: -0.75,inactive: -1.76,inactive: -1.21
C[C@]12CC[C@H]3[C@@H](CCC4=CC(=O)CC[C@@]43C)[C@@H]1CC[C@@H]2OC(=O)CCc1ccccc1,inactive: -1.93,inactive: 0.259,inactive: -1.29
CN(C)C(=O)Oc1ccc[n+](C)c1 [Mestinon],inactive: -1.59,,inactive: 0.146
CN(C)C(=O)Oc1ccc[n+](C)c1 [Pyridostigmine bromide],,inactive: -1.49,
NC[C@@H]1Cc2ccc(F)cc2[C@H](c2ccccc2)O1,inactive: -0.303,inactive: -0.584,inactive: 1.45
O=C(C1CCCC1)N1CCC(C(=O)O)(c2ccccc2)CC1,inactive: -0.752,,inactive: 0.717
C=CCC(C(=O)NC(N)=O)C(C)C (stereo unspecified),inactive: -1.7,inactive: 2.56,inactive: 0.0616
NC(Cc1ccc(O)cc1)C(=O)NC(Cc1ccc(O)cc1)C(=O)NC(Cc1ccc(O)cc1)C(=O)O (stereo unspecified),inactive: -0.732,inactive: 0.929,inactive: 0.454
CN1CCN(C(=O)Cc2ccc3ccccc3c2)CC1,inactive: -0.375,inactive: -1.87,inactive: -1.15
O=C1Nc2ccc(Br)cc2C(c2ccc(Cl)cc2)=NC1O (stereo unspecified),inactive: -1.54,inactive: -0.248,inactive: 0.281
Clc1ccc(C2(Cn3cncn3)OCCO2)c(Cl)c1,inactive: -0.525,inactive: -0.163,inactive: 0.397
Cc1nnc2n1-c1sc(CCC(=O)N3CCOCC3)cc1C(c1ccccc1Cl)=NC2,inactive: 3.39,inactive: -0.223,inactive: 0.576
O=C(CBr)N1CC([N+](=O)[O-])([N+](=O)[O-])C1,inactive: -0.397,inactive: -0.183,inactive: 1.58
C[C@@H]1CN2c3c(cc4c(N5C(=O)OC[C@H]5C)noc4c3F)CC3(C(=O)NC(=O)NC3=O)[C@@H]2[C@H](C)O1,inactive: -1.22,inactive: 2.59,inactive: -1.45

SMILES,TEAD-luciferase reporter activity (compound concentration: 200 nM),TEAD-luciferase reporter activity (compound concentration: 2 uM),TEAD-luciferase reporter activity (compound concentration: 10 uM)
BrC(Br)Br,inactive: -1.91,inactive: -1.05,inactive: -0.231
CN1c2ccccc2C(NCCCCCCC(=O)O)c2ccc(Cl)cc2S1(=O)=O (stereo unspecified) [Tianeptine sodium],inactive: -0.473,,inactive: -1.68
CN1c2ccccc2C(NCCCCCCC(=O)O)c2ccc(Cl)cc2S1(=O)=O (stereo unspecified) [tianeptine],,inactive: -2.04,
CN(C(=O)Cc1ccc(Cl)c(Cl)c1)C(CN1CCCC1)c1cccc(OCC(=O)O)c1 (stereo unspecified),,inactive: 1.36,
"CN(C(=O)Cc1ccc(Cl)c(Cl)c1)C(CN1CCCC1)c1cccc(OCC(=O)O)c1 (stereo unspecified) [ICI 204,448 hydrochloride]",inactive: 0.0293,,inactive: 0.764
c1cc2c(c(N3CCNCC3)c1)OCCO2 [eltoprazine],inactive: -0.867,inactive: 2.15,inactive: -1.2
CCOP(=S)(OCC)Oc1cc(C)nc(C(C)C)n1,inactive: 0.284,inactive: -0.234,inactive: 0.61
CCCC(C)(COC(N)=O)COC(N)=O [Meprobamate (Schedule Iv)],inactive: 1.82,,inactive: 1.68
CC(C)Cn1c(=O)cc(C(=O)O[C@H]2C[C@H]3CC[C@@H](C2)N3C)c2ccccc21,inactive: 0.526,inactive: -1.51,inactive: -0.568
Cc1occc1CN1CC[C@]2(C)c3cc(O)ccc3C[C@H]1[C@H]2C,inactive: -0.304,inactive: -1.33,inactive: -0.355
COC(=O)C1C(OC(=O)c2ccccc2)CC2CCC1N2C (stereo unspecified),inactive: 2.28,inactive: -1.01,inactive: 0.496
O=C(C1CCCN1C(=O)c1ccc(C(F)(F)F)cc1)N1CCC(N2CCCC2=O)CC1 (stereo unspecified),inactive: -0.917,,inactive: -0.666
Nc1c(Cl)cc(C(=O)NCC2CN3CCN2CC3)c2c1OCCO2 (stereo unspecified),inactive: 1.39,inactive: -1.57,inactive: 0.476
NC(=O)c1cc([N+](=O)[O-])cc([N+](=O)[O-])c1 [Nitromide],,inactive: 0.961,
"NC(=O)c1cc([N+](=O)[O-])cc([N+](=O)[O-])c1 [3,5-Dinitrobenzamide]",inactive: -1.03,,inactive: -0.423
Cc1ccccc1CN1CCN(CCOC(c2ccccc2)c2ccccc2Cl)CC1 (stereo unspecified),inactive: -1.52,inactive: 0.202,inactive: 1.77
COc1ccc(OC)c(C(O)C(C)NC(C)(C)C)c1 (stereo unspecified),inactive: -0.846,inactive: -1.48,inactive: 0.519
COc1cccc(C(=O)CCNC(C)C(O)c2ccccc2)c1 (stereo unspecified) [Oxyfedrine hydrochloride],inactive: 0.507,inactive: 1.45,inactive: -0.0521
CCOC(=O)c1cncn1[C@H](C)c1ccccc1,inactive: -1.29,,inactive: -0.76
CCOC(=O)c1cncn1[C@H](C)c1ccccc1 [etomidate],,inactive: -0.414,

# Copied from the list.
# TEAD-luciferase reporter activity (compound concentration: 10 uM) with COC(=O)C1C(OC(=O)c2ccccc2)CC2CCC1N2C (stereo unspecified) reads inactive: 0.496
# TEAD-luciferase reporter activity (compound concentration: 10 uM) with Cc1occc1CN1CC[C@]2(C)c3cc(O)ccc3C[C@H]1[C@H]2C reads inactive: -0.355
# TEAD-luciferase reporter activity (compound concentration: 10 uM) with O=C(O)C(=O)c1cn(Cc2ccccc2)c2ccc(-c3ccc(OC(F)(F)F)cc3)cc12 [Tiplasinin] reads inactive: -1.21
